Converted amounts (≈) assume the structure as drawn.
Experiments:
[1] = test system: Staphylococcus aureus; assay: Antimicrobial activity against methicillin-resistant Staphylococcus aureus A8094 by agar dilution method; format: functional
[2] = test system: Staphylococcus aureus; assay: Antimicrobial activity against methicillin-resistant Staphylococcus aureus A6226 by agar dilution method; format: functional

`CN[C@H](CC(C)C)C(=O)N[C@H]1C(=O)N[C@@H](CC(N)=O)C(=O)N[C@H]2C(=O)N[C@H]3C(=O)N[C@H](C(=O)N[C@H](C(=O)O)c4cc(O)cc(O)c4-c4cc3ccc4O)[C@H](O)c3ccc(c(Cl)c3)Oc3cc2cc(c3O[C@@H]2O[C@H](CO)[C@@H](O)[C@H](O)[C@H]2O[C@H]2C[C@](C)(N)[C@H](O)[C@H](C)O2)Oc2ccc(cc2Cl)[C@H]1O` [VANCOMYCIN] gave an MIC [1] of 8 µg/mL (≈ 5.52 µM) and an MIC [2] of 8 µg/mL (≈ 5.52 µM).

Source: ChEMBL document CHEMBL1143853, “Daptomycin nonsusceptibility in Staphylococcus aureus with reduced vancomycin susceptibility is independent of alterations in MprF” (2007)
